PubChem BioAssay AID1053208 – Peter MacCallum Cancer Centre – 2014
Shown is one part, drawn at random, of about 17,000 reagents tested. 788 of all reagents (4.7%) count as active. 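Calls rest on z-score classes alone; an extra cut-off of viability at most 70% of control was not applied to them.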 Unmarked entries are inactive. Reagents against one gene are numbered here. Further read-outs or replicates are left out here. Reagent sequences are not shown.

Purpose: 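Genes whose silencing cuts survival of bone tumour cells only with doxorubicin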 (primary screen)
Cell system: mouse osteosarcoma cells, early-passage culture from an engineered mouse model of fibroblastic bone tumour
Reagents: siRNA pool against mouse genes, 40 nM
Duration: about 120 h (48 h before drug, then 72 h with drug)
Challenge: doxorubicin 100 nM for 72 h, roughly 30-40% inhibitory dose
Read-out: 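Luminescent ATP signal taken as viability with or without 100 nM doxorubicin for 72 h; mean of two wells set against non-targeting siRNA and turned into robust z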
Scale: viability z-score with doxorubicin: higher = more viable cells under doxorubicin; viability z-score without drug: higher = more viable cells with knock-down alone
Active means: 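Called active if knock-down leaves viability unchanged without drug (z within -2 to 2) but lowers it with doxorubicin (z at or under -2)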

The opening 4 records as a preview:
gene symbol | reagent | combined z-score class | viability z-score with doxorubicin | viability z-score without drug
Sesn3 (GeneID 75747) | 1 | no change with or without drug | 1.12 | 0.51
Usp17lc (GeneID 13532) | 1 | no change with or without drug | 0.22 | 0.51
Rraga (GeneID 68441) | 1 | no change with or without drug | -1.57 | -0.51
Cenpc1 (GeneID 12617) | 1 | no change with or without drug | 0.22 | 0.84

Main list, repeating the preview:
gene symbol | reagent | combined z-score class | viability z-score with doxorubicin | viability z-score without drug
Sesn3 (GeneID 75747) | 1 | no change with or without drug | 1.12 | 0.51
Usp17lc (GeneID 13532) | 1 | no change with or without drug | 0.22 | 0.51
Rraga (GeneID 68441) | 1 | no change with or without drug | -1.57 | -0.51
Cenpc1 (GeneID 12617) | 1 | no change with or without drug | 0.22 | 0.84
Ovgp1 (GeneID 12659) | 1 | no change with or without drug | -0.22 | 0.51
Arpc1a (GeneID 56443) | 1 | no change with or without drug | -0.56 | 0.67
Gstp1 (GeneID 14870) | 1 | no change with or without drug | 1.12 | 0.17
Ctse (GeneID 13034) | 1 | no change with or without drug | 1.12 | -0.51
9430041O17RIK | 1 | low cell count with doxorubicin only (active) | -3.37 | 0.84
Tnfsf18 (GeneID 240873) | 1 | no change with or without drug | 0.67 | 1.52
Wfdc21 (GeneID 66107) | 1 | no change with or without drug | 0.45 | 1.18
Shc4 (GeneID 271849) | 1 | no change with or without drug | 0 | 0.34
Ccdc43 (GeneID 52715) | 1 | no change with or without drug | 0.9 | 0.34
Il12a (GeneID 16159) | 1 | no change with or without drug | 1.35 | 0.84
4933427D06Rik (GeneID 232217) | 1 | no change with or without drug | -0.9 | -1.01
Als2 (GeneID 74018) | 1 | no change with or without drug | 0.56 | -0.51
Rpl36a (GeneID 19982) | 1 | low cell count with and without drug | -5.51 | -5.06
Pgk2 (GeneID 18663) | 1 | no change with or without drug | 0.67 | 0.17
Abca14 (GeneID 67928) | 1 | no change with or without drug | -0.34 | 0.67
Sp110 (GeneID 109032) | 1 | no change with or without drug | -0.9 | 0.51
Or8k53 (GeneID 259023) | 1 | no change with or without drug | -0.45 | -1.01
Nr3c1 (GeneID 14815) | 1 | no change with or without drug | 0.67 | 1.85
Cacna1g (GeneID 12291) | 1 | no change with or without drug | -0.22 | -0.17
Cenpp (GeneID 66336) | 1 | no change with or without drug | 0.67 | 1.18
Gabra3 (GeneID 14396) | 1 | no change with or without drug | 0.11 | -1.52
Ube2g2 (GeneID 22213) | 1 | no change with or without drug | -1.57 | -0.17
Tacstd2 (GeneID 56753) | 1 | no change with or without drug | -0.45 | -1.52
Fat4 (GeneID 329628) | 1 | high cell count without drug only | 1.46 | 2.02
Fat4 (GeneID 329628) | 2 | no change with or without drug | -0.9 | -1.52
Gusb (GeneID 110006) | 1 | no change with or without drug | 1.57 | 0.51
Hoxb3 (GeneID 15410) | 1 | no change with or without drug | -0.9 | -1.18
Oprk1 (GeneID 18387) | 1 | no change with or without drug | -0.45 | 0.67
Bmp2k (GeneID 140780) | 1 | no change with or without drug | -0.45 | 1.18
Pcare (GeneID 225004) | 1 | no change with or without drug | 0.22 | -0.17
